Laboratory results reported in patent EP1773779B1, “NICOTINIC RECEPTOR AGONISTS FOR THE TREATMENT OF INFLAMMATORY DISEASES” (Université Laval, priority 2004, dated 2006).
At least one structure is not confirmed: it was looked up by name or label, or the drawing left a doubt.

Key:
[1] = system: mouse tracheal airway smooth muscle; assay: Isometric study on isolated mouse tracheal rings pre-contracted with metacholine; conditions: metacholine (10^-5), cumulative doses; Fig. 29
Procedure: Tracheal rings were mounted isometrically to force transducers in organ baths containing Krebs bicarbonate solution at 37°C and bubbled with 95% O2- 5% CO2, pre-contracted with submaximal concentration of metacholine (10^-5) and cumulative doses of the analogs were added to the baths. Changes of tension are recorded. Results are expressed as a percentage of maximal contraction (Fig. 29).
As described previously, tracheal or bronchial rings were mounted isometrically to force transducers in organ baths containing Krebs bicarbonate solution at 37°C and bubbled with 95% O2- 5% CO2,pre-contracted with submaximal concentration of metacholine cumulative doses of ASM-002 added. Changes of tension are recorded.

[2] = system: Tumor necrosis factor (TNF) release; assay: TNF release by LPS-stimulated human blood monocytes (ELISA); assay type: cell-based; conditions: all drugs at 40 µM, mean of 5 subjects; Fig. 38
Procedure: Human monocytes were isolated from the blood of asthmatic patients by Ficoll-paque density gradient, let to adhere to tissue culture plates and stimulated with LPS (100ng/ml) for 18 hours at 37°C with or without increasing concentrations of nicotine. The release of TNF, a potent pro-inflammatory mediator, was measured in the cell culture supernatant by the ELISA method. Results are expressed as a percentage release from LPS-stimulated untreated cells (Fig. 28).
Tumor necrosis factor (TNF) is a mediator released in inflammatory states. Human blood monocytes were stimulated in vitro with lipopolysaccharide (LPS) to produce large amounts of TNF, increasing doses of ASM-002 were added and the levels of TNF were measured (Fig. 37, EC50= 3µM, n=6, p= 0,0045 at 5 µm, 0,0014 at 10 µm and 0,0003 at 50 µm).

## C[N+]1(C)CCN(c2ccccc2)CC1 [DMPP, Dimethylphenylpiperazinium, reference compound]
[1]
  relaxation of tracheal smooth muscles pre-contracted with metacholine: dose dependant relaxation
[2]
  TNF release: inhibits TNF release
